Results from article PMC4022726.
These are yes or no findings as the source states them, for the method shown.

Amino acid sequences for entries named in this document (tags omitted).
UniProt P53678, whole entry: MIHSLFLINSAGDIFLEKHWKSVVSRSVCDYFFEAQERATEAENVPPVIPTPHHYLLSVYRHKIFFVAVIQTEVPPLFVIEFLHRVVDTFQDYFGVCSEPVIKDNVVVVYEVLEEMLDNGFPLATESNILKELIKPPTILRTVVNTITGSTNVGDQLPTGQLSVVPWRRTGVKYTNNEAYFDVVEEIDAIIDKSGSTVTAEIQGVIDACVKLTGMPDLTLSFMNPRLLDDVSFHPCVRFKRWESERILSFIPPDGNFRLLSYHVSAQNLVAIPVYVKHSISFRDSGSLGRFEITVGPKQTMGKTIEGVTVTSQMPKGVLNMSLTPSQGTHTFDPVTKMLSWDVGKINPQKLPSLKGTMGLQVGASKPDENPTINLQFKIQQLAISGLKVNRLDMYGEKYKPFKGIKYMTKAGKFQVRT

Legend:
[1] = biological target: NiV-F cytosolic tail (residues 519-546) (Nipah virus) (UniProt Q9IH63); experiment: two-hybrid
[2] = biological target: NiV-G cytosolic tail (residues 1-45) (Nipah virus) (UniProt Q9IH62); experiment: two-hybrid

μ3B subunit of AP-3 (Gal4 activation domain fusion) (from UniProt P53678 1-418)
binding [1]: no binding
binding [2]: no binding
